Source: PMC10286672
These are yes or no findings as the source states them, for the method shown. Binding seen in cells or lysates may run through a third protein. Some entries that bind do so weakly or less than the wild type.

Sequences of proteins named here, by UniProt entry; tags and fusion partners are left off.
UniProt Q86U44: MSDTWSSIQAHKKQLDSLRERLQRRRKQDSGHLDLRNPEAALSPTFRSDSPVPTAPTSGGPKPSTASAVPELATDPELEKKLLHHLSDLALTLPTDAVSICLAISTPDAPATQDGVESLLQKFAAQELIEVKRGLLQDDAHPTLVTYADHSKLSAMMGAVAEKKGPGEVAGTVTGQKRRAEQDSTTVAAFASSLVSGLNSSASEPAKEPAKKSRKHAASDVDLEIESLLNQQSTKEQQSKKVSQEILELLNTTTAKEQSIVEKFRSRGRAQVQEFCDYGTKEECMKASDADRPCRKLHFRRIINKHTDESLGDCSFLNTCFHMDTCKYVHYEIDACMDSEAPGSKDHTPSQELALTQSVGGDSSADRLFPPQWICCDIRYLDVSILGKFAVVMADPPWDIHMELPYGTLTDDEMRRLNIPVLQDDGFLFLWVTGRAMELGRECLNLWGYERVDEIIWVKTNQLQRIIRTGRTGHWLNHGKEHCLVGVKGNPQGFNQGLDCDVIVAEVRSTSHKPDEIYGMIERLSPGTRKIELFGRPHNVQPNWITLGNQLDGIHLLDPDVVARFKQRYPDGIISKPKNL
UniProt P89522: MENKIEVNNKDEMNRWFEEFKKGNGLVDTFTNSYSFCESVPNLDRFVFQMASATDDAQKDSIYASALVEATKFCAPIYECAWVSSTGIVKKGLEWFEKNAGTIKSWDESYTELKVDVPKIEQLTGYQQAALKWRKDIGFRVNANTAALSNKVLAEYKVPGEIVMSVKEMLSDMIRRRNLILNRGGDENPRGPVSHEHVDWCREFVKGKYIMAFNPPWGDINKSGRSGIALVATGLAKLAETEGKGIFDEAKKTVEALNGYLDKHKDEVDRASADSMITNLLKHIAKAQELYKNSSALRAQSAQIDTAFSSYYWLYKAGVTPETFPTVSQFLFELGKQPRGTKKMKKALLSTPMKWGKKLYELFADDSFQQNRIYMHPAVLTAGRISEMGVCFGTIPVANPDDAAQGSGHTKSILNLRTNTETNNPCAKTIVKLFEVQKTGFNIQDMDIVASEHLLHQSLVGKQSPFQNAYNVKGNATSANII
UniProt Q05323: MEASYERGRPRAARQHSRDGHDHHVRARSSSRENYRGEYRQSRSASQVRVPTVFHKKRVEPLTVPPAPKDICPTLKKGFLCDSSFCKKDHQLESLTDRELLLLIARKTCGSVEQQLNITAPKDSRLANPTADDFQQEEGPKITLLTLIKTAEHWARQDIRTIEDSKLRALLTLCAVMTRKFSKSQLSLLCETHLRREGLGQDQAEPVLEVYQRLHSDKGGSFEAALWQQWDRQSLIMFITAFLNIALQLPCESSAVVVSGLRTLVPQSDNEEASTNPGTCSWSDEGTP
UniProt Q05127: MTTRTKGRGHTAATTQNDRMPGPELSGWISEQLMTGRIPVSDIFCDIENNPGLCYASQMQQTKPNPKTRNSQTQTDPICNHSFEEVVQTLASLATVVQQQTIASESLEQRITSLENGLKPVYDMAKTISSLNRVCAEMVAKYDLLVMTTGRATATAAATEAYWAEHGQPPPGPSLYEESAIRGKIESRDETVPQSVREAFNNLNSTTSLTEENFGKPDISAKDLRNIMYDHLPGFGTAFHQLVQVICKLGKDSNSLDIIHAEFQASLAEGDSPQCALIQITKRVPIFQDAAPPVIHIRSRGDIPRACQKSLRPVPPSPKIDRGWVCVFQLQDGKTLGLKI

Target: flagHA-METTL3 (UniProt Q86U44)
Experiment: co-IP

## CCHFV nucleoprotein (N) (from UniProt P89522 1-482)
  binding: binds

## EBOV VP30 (from UniProt Q05323 1-288)
  binding: binds

## EBOV VP35 (from UniProt Q05127 1-340)
  binding: no binding
